The numbers were not newly measured in patent publication US9817001B2, “Methods for determining LDL cholesterol treatment” (Boston Heart Diagnostics Corporation, priority 2008, dated 2017), which cites them from elsewhere.

The test system of the data set is HDL particle profile (α-1 HDL, preβ-1 HDL). Particulars: 80 mg/day versus 40 mg/day.

For `CC(C)c1c(C(=O)Nc2ccccc2)c(-c2ccccc2)c(-c2ccc(F)cc2)n1CC[C@@H](O)C[C@@H](O)CC(=O)O` [atorvastatin], the “capacity for increasing the α-1 HDL level” value is given as “less capacity”.
